No constants are given. Whether binding was seen depends on the method and setting.

This assay concerns the target Trichomonas vaginalis capping enzyme (TvCE), full-length recombinant (Trichomonas vaginalis) (UniProt A2DUZ5). Nature of the assay: SEC; pre-calibrated Superdex 200 column; 50 mM Tris pH 6.0, 200 mM NaCl, 5 mM DTT, 10% glycerol; 0.2 ml/min; fractions tested for TPase and GTase activity and by western blot with HisProbe-HRP; both purified. (In general: In gel filtration, larger molecules generally elute earlier.)

B1: Trichomonas vaginalis capping enzyme (TvCE), full-length recombinant (enzyme, UniProt A2DUZ5 1-561)
chain: MTDNKFTPPKRWINCPKFGDRVPNTHFIPLKAPLADKYSDLYEKHRFTFSIFQEEQRKLGREIEVVISLANTDVFYSVNDLNGVKWRHIPCRGHETAPTSDEYAKFLATIEEFQQLPDNTLIAVHCTHGFNRTGYMIVRYLVDKLHYTLLQALQLFASVRSPGIYKVDYIQVLCQIYQVDETQTLSELFHVPPSEIKNIKKPKWEFPDPSTLPHFRVEKPIVNETQTLENVGTHFRDSAITSEISKICSVNYGRFPGSNPISITSENKMQLTQKRYLATYKSDGVRYFLYAFHKNTYLIDRKNSIRKVNVTLVTRKGQPMENTLLDGELVVSKGDDKPHFLIFDVLCFEGLNLTNHTWDLRMDYSKKGVVPFRKMYFNRNPGAFTREDFHIEEKLQWELQNIRDLEEYIMTKVTHDTDGAIFTPLDLEFVPGRCDQILKMKPIELNSTDFKIQLHNGIYYMSVTNYVKNDEKFQENIPISILDFADGLGVKDGAICEAVLDLKKEDIENDPINCWFKAGWRPLRIREDKDTPNVYTTFAGVFKSIEDNINFDTIAKMFPKK
As to B1, the binding result was “no binding”.

The record behind these values is publication PMC2904801, “A Metazoan/Plant-like Capping Enzyme and Cap Modified Nucleotides in the Unicellular Eukaryote Trichomonas vaginalis” (PLoS Pathogens, 2010).
